Results are given in words; binding and its absence hold for the method and conditions named. In cells and extracts the contact can be indirect. Some results given as binding are weak or reduced against the parent protein; the word gives no strength.
Molecular target: α1β1 integrin (human (endogenous in OA chondrocytes)) (UniProt P56199+P05556)
Experiment: co-IP; 100 μg total protein of OA chondrocytes (48 h on unmodified or HNE-modified Col II-coated plates, MR 1:20 to 1:200) precipitated with 1 μg mouse anti-human α1β1 integrin in KLB buffer with 0.5 M NaCl overnight at 4°C, then protein A for two hours; blotted with anti-pFAK or anti-α1β1 integrin

The chains behind the UniProt entries cited, without tags or fusion partners. Where a name states a change or a piece, a line headed by the entry shows the natural chain unless it says otherwise.
UniProt P56199: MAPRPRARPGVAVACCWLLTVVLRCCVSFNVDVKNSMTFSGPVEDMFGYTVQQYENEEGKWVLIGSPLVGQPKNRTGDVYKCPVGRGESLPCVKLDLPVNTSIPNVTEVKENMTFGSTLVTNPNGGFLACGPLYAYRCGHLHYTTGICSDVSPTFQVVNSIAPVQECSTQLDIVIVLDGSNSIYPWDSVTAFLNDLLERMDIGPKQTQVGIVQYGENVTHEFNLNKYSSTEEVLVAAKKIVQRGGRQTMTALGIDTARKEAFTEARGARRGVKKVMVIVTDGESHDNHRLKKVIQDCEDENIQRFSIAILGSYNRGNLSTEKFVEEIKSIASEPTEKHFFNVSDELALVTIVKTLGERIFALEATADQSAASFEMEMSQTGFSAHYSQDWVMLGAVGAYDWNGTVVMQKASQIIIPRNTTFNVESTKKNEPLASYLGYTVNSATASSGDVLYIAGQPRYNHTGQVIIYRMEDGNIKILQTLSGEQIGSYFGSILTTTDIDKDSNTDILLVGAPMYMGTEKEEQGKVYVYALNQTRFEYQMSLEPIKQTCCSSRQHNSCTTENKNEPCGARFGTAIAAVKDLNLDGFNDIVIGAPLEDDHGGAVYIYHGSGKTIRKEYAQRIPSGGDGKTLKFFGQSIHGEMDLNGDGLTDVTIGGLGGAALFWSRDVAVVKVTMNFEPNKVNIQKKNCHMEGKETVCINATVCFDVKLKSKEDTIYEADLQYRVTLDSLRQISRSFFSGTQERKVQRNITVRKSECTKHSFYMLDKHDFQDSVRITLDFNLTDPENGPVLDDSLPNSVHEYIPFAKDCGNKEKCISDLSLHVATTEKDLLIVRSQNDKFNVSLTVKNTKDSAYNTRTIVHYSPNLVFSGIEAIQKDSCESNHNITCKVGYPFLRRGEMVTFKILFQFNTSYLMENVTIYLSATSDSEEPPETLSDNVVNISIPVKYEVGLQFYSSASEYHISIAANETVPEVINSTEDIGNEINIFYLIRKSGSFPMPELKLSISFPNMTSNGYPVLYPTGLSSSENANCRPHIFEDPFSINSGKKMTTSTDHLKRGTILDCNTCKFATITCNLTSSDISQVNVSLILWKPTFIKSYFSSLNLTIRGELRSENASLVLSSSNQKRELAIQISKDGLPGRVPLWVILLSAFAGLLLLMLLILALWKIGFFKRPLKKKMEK
UniProt P05556: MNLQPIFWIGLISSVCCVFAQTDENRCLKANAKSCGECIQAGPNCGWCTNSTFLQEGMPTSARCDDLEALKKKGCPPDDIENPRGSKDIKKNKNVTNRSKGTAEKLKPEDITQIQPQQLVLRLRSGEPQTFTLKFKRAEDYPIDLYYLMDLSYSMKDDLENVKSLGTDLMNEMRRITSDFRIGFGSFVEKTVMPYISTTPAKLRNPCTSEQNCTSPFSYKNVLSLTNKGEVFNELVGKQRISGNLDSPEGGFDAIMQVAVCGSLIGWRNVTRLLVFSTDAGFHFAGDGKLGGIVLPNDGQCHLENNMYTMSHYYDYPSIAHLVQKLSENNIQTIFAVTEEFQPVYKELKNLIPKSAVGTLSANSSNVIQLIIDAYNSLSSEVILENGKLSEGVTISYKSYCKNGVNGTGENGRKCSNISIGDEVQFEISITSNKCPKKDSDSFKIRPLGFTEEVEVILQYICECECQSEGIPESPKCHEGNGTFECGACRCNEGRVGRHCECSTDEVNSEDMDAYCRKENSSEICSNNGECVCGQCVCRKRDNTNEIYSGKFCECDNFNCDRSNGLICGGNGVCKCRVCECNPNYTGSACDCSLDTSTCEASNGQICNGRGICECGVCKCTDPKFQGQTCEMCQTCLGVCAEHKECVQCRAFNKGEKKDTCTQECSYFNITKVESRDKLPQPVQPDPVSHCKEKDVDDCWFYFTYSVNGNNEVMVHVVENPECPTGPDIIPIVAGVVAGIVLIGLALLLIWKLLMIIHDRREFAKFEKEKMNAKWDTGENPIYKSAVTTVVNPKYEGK
UniProt Q05397: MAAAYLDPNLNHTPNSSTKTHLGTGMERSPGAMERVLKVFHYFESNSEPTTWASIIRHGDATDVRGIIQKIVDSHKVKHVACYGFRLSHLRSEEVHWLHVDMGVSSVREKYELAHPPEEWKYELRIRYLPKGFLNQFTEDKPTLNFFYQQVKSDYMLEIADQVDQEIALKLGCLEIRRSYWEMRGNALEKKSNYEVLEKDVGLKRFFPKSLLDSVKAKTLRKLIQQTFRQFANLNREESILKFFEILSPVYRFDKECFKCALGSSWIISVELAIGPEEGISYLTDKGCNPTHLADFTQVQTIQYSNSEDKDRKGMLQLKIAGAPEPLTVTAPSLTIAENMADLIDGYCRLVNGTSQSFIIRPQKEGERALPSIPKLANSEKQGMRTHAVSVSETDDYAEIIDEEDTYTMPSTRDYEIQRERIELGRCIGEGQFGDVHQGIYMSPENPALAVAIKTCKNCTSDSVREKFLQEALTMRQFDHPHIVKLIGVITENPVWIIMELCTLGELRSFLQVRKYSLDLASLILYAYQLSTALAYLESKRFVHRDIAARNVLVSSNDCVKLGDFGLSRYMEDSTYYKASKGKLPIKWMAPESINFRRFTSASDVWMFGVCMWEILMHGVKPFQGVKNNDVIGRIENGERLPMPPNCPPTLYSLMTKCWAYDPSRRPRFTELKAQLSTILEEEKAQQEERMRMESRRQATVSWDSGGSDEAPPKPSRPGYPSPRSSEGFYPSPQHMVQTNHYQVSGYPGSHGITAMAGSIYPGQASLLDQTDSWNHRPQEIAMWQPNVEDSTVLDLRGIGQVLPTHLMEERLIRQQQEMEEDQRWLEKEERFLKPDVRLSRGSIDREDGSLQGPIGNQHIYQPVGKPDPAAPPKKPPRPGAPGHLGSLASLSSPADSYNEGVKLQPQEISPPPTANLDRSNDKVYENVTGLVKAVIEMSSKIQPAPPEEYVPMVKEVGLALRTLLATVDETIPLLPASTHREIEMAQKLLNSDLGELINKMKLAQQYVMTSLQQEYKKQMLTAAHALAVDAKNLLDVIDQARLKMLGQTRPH

Substance: phosphorylated focal adhesion kinase (from UniProt Q05397 1-1052)
- binding: binds

From publication PMC2991038
